Reference: US10563263B2, “Genetic polymorphisms associated with statin response and cardiovascular diseases, methods of detection and uses thereof” (CELERA CORPORATION, priority 2010, dated 2020)
The source gives many values for each of these; only a part stands here.

System: revascularization, unstable angina requiring hospitalization, MI, all causes of death, or stroke
Test: PROVE IT-TIMI 22: SNP by treatment interaction (high-dose atorvastatin vs standard-dose pravastatin), logistic regression (synergy index), primary composite endpoint
Assay type: in vivo, human

CC(C)c1c(C(=O)Nc2ccccc2)c(-c2ccccc2)c(-c2ccc(F)cc2)n1CC[C@@H](O)C[C@@H](O)CC(=O)O [Atorvastatin, atorvastatin]
OR (PROVEIT, rs9857, caseonly, add, CVD): 0.78
OR (PROVEIT, rs133871, caseonly, dom, CHD): 0.59
OR (PROVEIT, rs581401, cohort, rec, CHD): 0.54
OR (PROVEIT, rs603940, cohort, rec, CHD): 0.55
OR (PROVEIT, rs623400, caseonly, dom, CVD): 0.65
OR (PROVEIT, rs623584, cohort, rec, CHD): 0.56
OR (PROVEIT, rs675163, caseonly, add, CVD): 0.58
OR (PROVEIT, rs936671, caseonly, dom, CHD): 0.64
OR (PROVEIT, rs1068705, caseonly, dom, CHD): 0.58
OR (PROVEIT, rs1129570, caseonly, add, CHD): 1.41
OR (PROVEIT, rs1155875, caseonly, add, CHD): 0.79
OR (PROVEIT, rs1352236, caseonly, rec, CHD): 0.39
OR (PROVEIT, rs1505469, caseonly, add, CHD): 1.85
OR (PROVEIT, rs1531842, caseonly, dom, CHD): 0.67
OR (PROVEIT, rs1536506, caseonly, rec, CVD): 1.44
OR (PROVEIT, rs1564078, caseonly, add, CHD): 0.86
OR (PROVEIT, rs1866386, caseonly, add, CVD): 0.77
OR (PROVEIT, rs2184393, caseonly, dom, CHD): 0.75
OR (PROVEIT, rs2748901, cohort, rec, CHD): 1.43
OR (PROVEIT, rs2869680, caseonly, add, CVD): 0.72
OR (PROVEIT, rs2880563, caseonly, dom, CVD): 1.51
OR (PROVEIT, rs3800202, cohort, add, CHD): 0.59
OR (PROVEIT, rs4251580, caseonly, add, CVD): 0.64
OR (PROVEIT, rs4689078, caseonly, add, CVD): 1.20
OR (PROVEIT, rs5764592, caseonly, dom, CVD): 1.48
OR (PROVEIT, rs6435378, caseonly, dom, CHD): 0.74
OR (PROVEIT, rs6848512, caseonly, dom, CVD): 0.64
OR (PROVEIT, rs7623808, caseonly, rec, CVD): 4.79
OR (PROVEIT, rs7770578, caseonly, add, CHD): 0.65
OR (PROVEIT, rs7915250, caseonly, dom, CVD): 0.66
OR (PROVEIT, rs9986576, caseonly, rec, CVD): 2.00
OR (PROVEIT, rs10106852, caseonly, rec, CVD): 2.19
OR (PROVEIT, rs10181805, caseonly, add, CVD): 1.28
OR (PROVEIT, rs10460737, caseonly, add, CVD): 0.10
OR (PROVEIT, rs10738948, caseonly, add, CHD): 0.68
OR (PROVEIT, rs11668038, caseonly, add, CHD): 1.54
OR (PROVEIT, rs12608167, cohort, dom, CVD): 0.63
OR (PROVEIT, rs13103899, caseonly, dom, CVD): 0.53
OR (PROVEIT, rs13117043, caseonly, dom, CHD): 1.74
OR (PROVEIT, rs17035071, caseonly, dom, CHD): 1.60
OR (PROVEIT, rs17310169, caseonly, dom, CVD): 0.61
OR (PROVEIT, rs17718867, caseonly, add, CHD): 0.77
OR (PROVEIT, rs77638540, cohort, dom, CVD): 0.49
OR (SNP rs250162 allele C, model ADD, Imputed, ATORVA vs PRAVA): 0.6714
OR (SNP rs250162 allele C, model DOM, Imputed, ATORVA vs PRAVA): 0.6417
OR (SNP rs264129 allele T, model DOM, Imputed, ATORVA vs PRAVA): 0.6399
OR (SNP rs277411 allele G, model DOM, Imputed, ATORVA vs PRAVA): 1.109
OR (SNP rs373983 allele G, model DOM, Imputed, ATORVA vs PRAVA): 1.954
OR (SNP rs399485 allele A, model DOM, Imputed, ATORVA vs PRAVA): 1.648
OR (SNP rs483159 allele T, model DOM, Imputed, ATORVA vs PRAVA): 1.953
OR (SNP rs2389866 allele C, model DOM, Imputed, ATORVA vs PRAVA): 0.5404
OR (SNP rs2389869 allele C, model DOM, Imputed, ATORVA vs PRAVA): 0.5404
OR (SNP rs2389870 allele C, model DOM, Genotyped, ATORVA vs PRAVA): 0.5285
OR (SNP rs2418494 allele G, model ADD, Imputed, ATORVA vs PRAVA): 0.6959
OR (SNP rs2418541 allele A, model DOM, Imputed, ATORVA vs PRAVA): 0.593
OR (SNP rs2418542 allele A, model DOM, Imputed, ATORVA vs PRAVA): 0.593
OR (SNP rs2423556 allele C, model DOM, Imputed, ATORVA vs PRAVA): 0.5931
OR (SNP rs2437688 allele C, model ADD, Imputed, ATORVA vs PRAVA): 2.041
OR (SNP rs2456809 allele G, model DOM, Imputed, ATORVA vs PRAVA): 1.173
OR (SNP rs2456811 allele T, model ADD, Imputed, ATORVA vs PRAVA): 1.146
OR (SNP rs2456811 allele T, model DOM, Imputed, ATORVA vs PRAVA): 1.202
OR (SNP rs2476976 allele C, model DOM, Imputed, ATORVA vs PRAVA): 1.391
OR (SNP rs2484911 allele A, model DOM, Imputed, ATORVA vs PRAVA): 1.347
OR (SNP rs2488557 allele C, model DOM, Imputed, ATORVA vs PRAVA): 0.924
OR (SNP rs2560708 allele T, model ADD, Imputed, ATORVA vs PRAVA): 0.7416
OR (SNP rs2617841 allele G, model DOM, Imputed, ATORVA vs PRAVA): 0.7326
OR (SNP rs2622499 allele G, model DOM, Imputed, ATORVA vs PRAVA): 0.5404
OR (SNP rs2642936 allele T, model ADD, Imputed, ATORVA vs PRAVA): 0.9768
OR (SNP rs2660633 allele A, model DOM, Imputed, ATORVA vs PRAVA): 1.204
OR (SNP rs2660634 allele C, model DOM, Imputed, ATORVA vs PRAVA): 1.204
OR (SNP rs2660648 allele A, model ADD, Imputed, ATORVA vs PRAVA): 1.135
OR (SNP rs2660648 allele A, model DOM, Imputed, ATORVA vs PRAVA): 1.187
OR (SNP rs2681505 allele T, model ADD, Imputed, ATORVA vs PRAVA): 0.8499
OR (SNP rs2832634 allele G, model ADD, Imputed, ATORVA vs PRAVA): 1.764
OR (SNP rs2832637 allele T, model ADD, Imputed, ATORVA vs PRAVA): 1.764
OR (SNP rs2843167 allele A, model DOM, Imputed, ATORVA vs PRAVA): 1.111
OR (SNP rs2876227 allele C, model ADD, Imputed, ATORVA vs PRAVA): 1.389
OR (SNP rs2909862 allele G, model DOM, Imputed, ATORVA vs PRAVA): 1.083
OR (SNP rs3001945 allele T, model DOM, Imputed, ATORVA vs PRAVA): 1.72
OR (SNP rs3011020 allele C, model DOM, Imputed, ATORVA vs PRAVA): 1.747
OR (SNP rs3743794 allele G, model DOM, Imputed, ATORVA vs PRAVA): 0.8871
OR (SNP rs3756154 allele C, model ADD, Imputed, ATORVA vs PRAVA): 0.6137
OR (SNP rs3756154 allele C, model DOM, Imputed, ATORVA vs PRAVA): 0.5162
OR (SNP rs3775850 allele A, model DOM, Imputed, ATORVA vs PRAVA): 0.5373
OR (SNP rs3775851 allele C, model DOM, Imputed, ATORVA vs PRAVA): 0.5373
OR (SNP rs3793044 allele C, model ADD, Imputed, ATORVA vs PRAVA): 1.091
OR (SNP rs3793053 allele C, model DOM, Imputed, ATORVA vs PRAVA): 0.9919
OR (SNP rs3796246 allele G, model DOM, Imputed, ATORVA vs PRAVA): 0.9829
OR (SNP rs3806003 allele A, model ADD, Imputed, ATORVA vs PRAVA): 1.091
OR (SNP rs3806004 allele T, model DOM, Imputed, ATORVA vs PRAVA): 0.982
OR (SNP rs3806010 allele T, model DOM, Imputed, ATORVA vs PRAVA): 0.982
OR (SNP rs3806014 allele T, model DOM, Imputed, ATORVA vs PRAVA): 1.002
OR (SNP rs3806015 allele A, model DOM, Imputed, ATORVA vs PRAVA): 0.9945
OR (SNP rs3806018 allele A, model DOM, Imputed, ATORVA vs PRAVA): 0.982
OR (SNP rs3806019 allele A, model DOM, Imputed, ATORVA vs PRAVA): 0.9676
OR (SNP rs3806024 allele T, model DOM, Imputed, ATORVA vs PRAVA): 1.001
OR (SNP rs3942254 allele T, model ADD, Imputed, ATORVA vs PRAVA): 0.7577
OR (SNP rs3942254 allele T, model DOM, Imputed, ATORVA vs PRAVA): 0.6591
OR (SNP rs3945085 allele A, model DOM, Imputed, ATORVA vs PRAVA): 1.324
OR (SNP rs3976737 allele G, model ADD, Imputed, ATORVA vs PRAVA): 1.239
OR (SNP rs4029119 allele G, model ADD, Imputed, ATORVA vs PRAVA): 0.9741
OR (SNP rs4029119 allele G, model DOM, Imputed, ATORVA vs PRAVA): 1.136
OR (SNP rs4076201 allele G, model REC, Imputed, ATORVA vs PRAVA): 1.982
OR (SNP rs4146972 allele T, model DOM, Genotyped, ATORVA vs PRAVA): 1.832
OR (SNP rs4238087 allele G, model DOM, Imputed, ATORVA vs PRAVA): 0.5579
OR (SNP rs4251569 allele T, model ADD, Imputed, ATORVA vs PRAVA): 0.645
OR (SNP rs4251569 allele T, model DOM, Imputed, ATORVA vs PRAVA): 0.5571
OR (SNP rs4273613 allele T, model ADD, Imputed, ATORVA vs PRAVA): 0.9741
OR (SNP rs4273613 allele T, model DOM, Imputed, ATORVA vs PRAVA): 1.136
OR (SNP rs4315598 allele T, model ADD, Imputed, ATORVA vs PRAVA): 1.389
OR (SNP rs4315598 allele T, model REC, Imputed, ATORVA vs PRAVA): 2.069
OR (SNP rs4321395 allele A, model DOM, Imputed, ATORVA vs PRAVA): 1.094
OR (SNP rs4321596 allele T, model REC, Genotyped, ATORVA vs PRAVA): 2.583
OR (SNP rs4324417 allele T, model DOM, Imputed, ATORVA vs PRAVA): 1.061
OR (SNP rs4328619 allele G, model DOM, Genotyped, ATORVA vs PRAVA): 0.5613
OR (SNP rs4338909 allele T, model ADD, Imputed, ATORVA vs PRAVA): 0.998
OR (SNP rs4370878 allele G, model DOM, Imputed, ATORVA vs PRAVA): 1.312
OR (SNP rs4379434 allele T, model DOM, Genotyped, ATORVA vs PRAVA): 0.9929
OR (SNP rs4416407 allele T, model DOM, Imputed, ATORVA vs PRAVA): 1.387
OR (SNP rs4417899 allele C, model REC, Imputed, ATORVA vs PRAVA): 0.7208
OR (SNP rs4442732 allele A, model ADD, Imputed, ATORVA vs PRAVA): 0.9155
OR (SNP rs4444612 allele G, model ADD, Imputed, ATORVA vs PRAVA): 1.389
OR (SNP rs4444612 allele G, model REC, Imputed, ATORVA vs PRAVA): 2.069
OR (SNP rs4509702 allele C, model DOM, Imputed, ATORVA vs PRAVA): 1.312
OR (SNP rs4533145 allele T, model DOM, Imputed, ATORVA vs PRAVA): 1.764
OR (SNP rs4557006 allele A, model DOM, Imputed, ATORVA vs PRAVA): 1.096
OR (SNP rs4570530 allele C, model DOM, Imputed, ATORVA vs PRAVA): 1.312
